Measured values as given in PubChem BioAssay AID493014 (National Center for Advancing Translational Sciences (NCATS), 2011).
Screen size: about 340,000 compounds; about 170 (0.05%) were called active. This list was built around the results that the source calls inconclusive (neither active nor inactive); the mix of calls is not that of the screen. Calls follow the shape of the dose curve; as a rule, active = well fitted inhibition curve with a large enough effect in the signal ratio, with a control signal flat (not every such curve was filed as active); inconclusive = small, poorly fitted or top-dose-only effect, or effect the other way, or a change in a side signal; inactive = flat fitted curve, though single readings scatter; the % refers to the signal ratio. Potencies beside an inconclusive call are fits to weak or partial responses and may not hold up.

assay: qHTS Assay to Find Inhibitors of Chronic Active B-Cell Receptor Signaling; details: ABC-DLBCL IkBa-CBG/CBR reporter, luminescence ratio (green luciferase fused to IkBa over red control in TMD8 lymphoma cells), 4 h; activity change, negative = inhibition: at 46.1 µM (top of the series);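 as to activity change, negative = inhibition: plate controls were basal doxycycline-induced cells for no effect and cells given 10 µM MG132 for full effect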
In short: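 Cell line TMD8 (human ABC DLBCL), stably expressing tet-inducible CBG68-IkBa fusion and CBR; IMDM/0.5% FBS; cpd up to 46 uM; dox induction, 4 h, 37C/5% CO2; dual luminescence; green/red ratio; MG132 control.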
Potency is read from the fitted curve at half-maximal effect.

| SMILES | Potency | activity change, negative = inhibition |
| --- | --- | --- |
| CCOc1cccc(C(=O)NC(=S)Nc2cccc(NC(=O)c3ccccc3Cl)c2)c1 | inconclusive: 2.91 µM [falling, full curve] | – |
| O=c1ncn(-c2ccccc2F)c2ncccc12 | inconclusive: 7.94 µM [falling, partial curve, poor fit] | – |
| c1ccc(Cn2nnnc2C(c2cccs2)N2CCc3ccccc3C2)cc1 (stereo not drawn) | – | inconclusive: -17.7% |
| COc1ccc(C(=O)C2CCCN(C(=O)/C=C/c3cnc[nH]3)C2)c(C)c1 (stereo not drawn) | inconclusive: 25.1 µM [falling, single point] | – |
| NC(=O)NC(=O)COC(=O)CNS(=O)(=O)c1ccc(F)c(F)c1F | – | inconclusive: 6.74% |
| COc1ccc(Br)cc1CNC(=O)CCSCc1ccc(Cl)cc1 | – | inconclusive: -20.2% |
| CCN(Cc1ccc2c(c1)OCO2)C(=O)CSc1ncnc2sccc12 | – | inactive |
| COC(=O)c1cnn(-c2nc3c(C)cccc3s2)c1C | inconclusive: 1.03 µM [rising, full curve] | – |
| O=S(Cc1cc(Sc2ccccc2)nc(-c2ccccc2)n1)c1ccccc1 (stereo not drawn) | – | inconclusive: 7.6% |
| Cc1ccccc1OCC(=O)OCC(=O)c1ccc[nH]1 | – | inconclusive: 1.62% |
| CCOc1ccc2oc(-c3ccccc3)c(C(=O)N3CCN(CCO)CC3)c2c1 | – | inactive |
| COc1ccc(N2CCN(C(CNC(=O)c3ccco3)c3ccco3)CC2)cc1 (stereo not drawn) | – | inconclusive: 5.11% |
| O=C(NCC(O)CO)c1ccc2[nH]c3ccccc3c2c1 (stereo not drawn) | inconclusive: 10.3 µM [rising, partial curve, poor fit] | – |
| Cc1ccc(C(=O)Nc2cccc(C(F)(F)F)c2)cc1Nc1ccccn1 | – | inconclusive: 0.432% |
| C=CCC1(O)CC(c2ccco2)NC(c2ccco2)C1CCC (stereo not drawn) | – | inconclusive: 17.4% |
| CCOC(=O)Cc1csc(N/N=C/c2ccc(Cl)cc2)n1 | – | inconclusive: -3.57% |
| COc1cc(/C=N/NC(=O)c2ccc(N3CCCC3=O)cc2)ccc1O | – | inconclusive: 7.19% |
| COc1ccc(CC2(CO)CCN(Cc3ccc(NC(C)=O)cc3)CC2)cc1 | – | inconclusive: 17% |
| CCN1CCN(CC(=O)c2c[nH]c3ccc(C)cc23)CC1 | – | inconclusive: 10.4% |
| O=C(NC(=S)Nc1ccc(Cl)cc1)c1ccccc1 | inconclusive: 31.6 µM [cytotoxic, single point] | – |
| COc1ccc(-c2nc3ccc(C(=O)NCc4ccc(C)cc4)cc3nc2-c2ccc(OC)cc2)cc1 | – | inconclusive: -0.382% |
| CC1(C(=O)NC(=S)N(Cc2ccccc2)c2ccccn2)CC1(Cl)Cl (stereo not drawn) | – | inconclusive: 3.02% |
| Cc1ccccc1NC(=S)N1CCN(Cc2ccc3c(c2)OCO3)CC1 | – | inactive |
| O=C(CC1N=C2c3ccccc3N=C(SCc3ccccc3Cl)N2C1=O)NC1CCCCC1 (stereo not drawn) | – | inactive |
| O=C(Nc1ccc(Cl)cc1C(=O)N1CCOCC1)c1cccc([N+](=O)[O-])c1 | – | inconclusive: 2.22% |
| CC(C)NC(=O)c1ccc2c(c1)nnn2C | – | inconclusive: -4.41% |
| Cc1cccc(NC(=O)CSc2nc(C)nc3c2c(=O)n(C)c(=O)n3C)c1 | – | inconclusive: 17% |

| SMILES | Potency | activity change, negative = inhibition |
| --- | --- | --- |
| CCn1c(SCC(=O)Nc2cc(C)ccc2C)nnc1-c1cnccn1 | – | inconclusive: 4.9% |
| CCc1ccc(CN(C)Cc2nc(Cc3ccccc3)no2)nc1 | – | inconclusive: 12.2% |
| Cc1cc(NC(=S)NC(=O)CC(C)C)ccc1Br | – | inconclusive: 8.32% |
| Cc1cc(C)nc(NNS(=O)(=O)c2ccc(F)c(Cl)c2)n1 | – | inactive |
| COc1cc(CC(=O)OCC(=O)Nc2ccc(S(=O)(=O)N3CCCC3)cc2)cc(OC)c1OC | – | inactive |
| O=C(NNC(=O)C12CC3CC(CC(C3)C1)C2)c1cccc(O)c1 | inconclusive: 7.08 µM [falling, partial curve] | – |
| CCc1ccc(N=c2c([N+](=O)[O-])nn(-c3ccccc3)n2O)cc1 | – | inactive |
| CCOC(=O)N1CCN(C(=O)c2ccccc2NC(=O)c2ccc(Br)cc2)CC1 | inconclusive: 18.4 µM [falling, partial curve] | – |
| CC(=O)NC(CCCNC(=S)NC1CCCCC1)C(=O)O (stereo not drawn) | – | inactive |
| COc1ccc(CN2CCN(C(=O)c3ccc(S(=O)(=O)N4CCCCCC4)cc3)CC2)cc1F | – | inactive |
| Brc1ccccc1C1Nc2cccc3cccc(c23)N1 | – | inconclusive: -1.64% |
| N#C/C(=C\c1ccc(O)c(O)c1)S(=O)(=O)c1ccccc1 | – | inactive |
| N#CC12COC3(CCCCC3C1(C#N)C#N)OC2=N (stereo not drawn) | – | inactive |
| COc1ccccc1NC(=O)CN1CCN(C(=O)c2ccco2)CC1 | inconclusive: 6.51 µM [falling, single point] | – |
| CCC(C)NC(=O)Cn1cnc2sc(C)c(S(=O)(=O)N3CCN(c4ccccc4OC)CC3)c2c1=O (stereo not drawn) | – | inactive |
| CC1=C(C(N)=O)C(c2ccccc2)n2nc(-c3cccc(C)c3)nc2N1 (stereo not drawn) | – | inconclusive: -4.59% |
| COCCCNC(=S)Nc1cc2oc3ccccc3c2cc1OC | – | inconclusive: -0.761% |
| Cc1ccc(CSc2nnc3c(n2)OC2(Nc4ccccc4-3)C(=O)Nc3ccc(F)cc32)cc1 (stereo not drawn) | inconclusive: 14.1 µM [falling, single point] | – |
| Cc1ccc(O)c(-c2cc(C(=O)Nc3ccc(S(=O)(=O)N4CC(C)OC(C)C4)cc3)[nH]n2)c1 (stereo not drawn) | inconclusive: 18.4 µM [falling, partial curve] | – |
| COc1ccc(CC(CC(=O)O)C(=O)Nc2ccccc2)cc1 (stereo not drawn) | – | inconclusive: -1.29% |
| CCCN=C1N(CC)C[C@@H]2[C@@H]3C(=O)N(Cc4ccccc4)C(=O)[C@@H]3[C@](C)(C(=O)OC)N12 | – | inconclusive: 6.58% |
| Cc1ccc(CCNC(=O)CN2N=C(c3ccc(C)cc3)CCC2=O)cc1 | – | inactive |
| Cc1ccc(-n2ncc3c2CCCC3NC(=O)c2ccoc2)cc1C (stereo not drawn) | – | inactive |
| Cc1cccc(N2CCN(S(=O)(=O)c3c(C)nc4scc(C)n4c3=O)CC2C)c1 (stereo not drawn) | – | inconclusive: -0.314% |
| CSc1ccc(/C=C/C(=O)OCC(=O)N2CCN(S(=O)(=O)c3ccc(C)cc3C)CC2)cc1 | – | inconclusive: -1.39% |
| CC(=O)c1c(C)[nH]c(C(=O)OCc2ccc(F)cc2Cl)c1C | – | inconclusive: 1.31% |

An excerpt from above in order of number of heavy atoms, ascending.

| SMILES | Potency | activity change, negative = inhibition |
| --- | --- | --- |
| O=C(NNC(=O)C12CC3CC(CC(C3)C1)C2)c1cccc(O)c1 | inconclusive: 7.08 µM [falling, partial curve] | – |
| CC1=C(C(N)=O)C(c2ccccc2)n2nc(-c3cccc(C)c3)nc2N1 (stereo not drawn) | – | inconclusive: -4.59% |
| Cc1ccc(CSc2nnc3c(n2)OC2(Nc4ccccc4-3)C(=O)Nc3ccc(F)cc32)cc1 (stereo not drawn) | inconclusive: 14.1 µM [falling, single point] | – |
